Experimental data taken from article PMC4860837, “Structural basis for Sfm1 functioning as a protein arginine methyltransferase” (Cell Discovery, 2015).

Target: T1, GST-tagged yeast S3 expressed in yeast (S. cerevisiae) (UniProt P05750)
T1 sequence: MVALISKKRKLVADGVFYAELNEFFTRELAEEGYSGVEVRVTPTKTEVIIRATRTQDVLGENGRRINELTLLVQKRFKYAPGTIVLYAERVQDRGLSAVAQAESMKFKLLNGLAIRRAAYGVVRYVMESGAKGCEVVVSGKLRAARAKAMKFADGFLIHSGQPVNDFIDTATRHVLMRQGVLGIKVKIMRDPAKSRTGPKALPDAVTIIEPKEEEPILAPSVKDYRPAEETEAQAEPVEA
Assay: affinity purification with mass spectrometry; GST-S3 and untagged Sfm1 co-expressed in yeast YPH499; GST-S3 complex purified on glutathione sepharose beads, chymotrypsin digest, LC-MS

binding: binds
B1: Yar1 (found with GST-S3 in yeast) (protein, UniProt P46683 1-200)
chain: MGLHSEPLDQEDQDTIILDARAGDLDSLKDIFTTLVSPELLSTCKESESDSTALHMAAANGHIETVRYILETVSRANSAEDLKAFVNEVNKTGNTALHWASLNGKLDVVKLLCDEYEADPFIRNKFGHDAIFEAENSGKEEVETYFLKKYDVEPEDDEEDTQTEGKNSVQITKGTEIEQVTKEATEALREETEKLNINKD

No constants are given. Whether binding was seen depends on the method and setting. Binding seen in cells or lysates may run through a third protein. Here binding means that the protein was enriched with, or labelled near, the bait; the list need not be complete. Tags and fused reporters may be left off the sequences shown.
